Data: patent US20110158901
The exact form of at least one protein or probe is not confirmed. At least one result comes from cells or an extract, where the contact may be indirect. A negative result means that nothing was seen under these conditions.

System: Ramos cell surface (control cells, no defined protein) (Homo sapiens)
Assay: flow cytometry
Conditions: 5'-carboxyl, conjugated to FITC-chitosan nanoparticle amines; protein on the cell surface; label: FITC (on nanoparticle); single-stranded DNA

ATCTAACTGCTGCGCCGCCGGGAAAATACTGTACGGTTAGA [sgc8c]
binding result: no binding
